Test results: publication PMC11533501
No constants are given. Whether binding was seen depends on the method and setting. Some entries that bind do so weakly or less than the wild type.

Chains of the proteins cited; added tags and fusions are not shown.
UniProt Q04477: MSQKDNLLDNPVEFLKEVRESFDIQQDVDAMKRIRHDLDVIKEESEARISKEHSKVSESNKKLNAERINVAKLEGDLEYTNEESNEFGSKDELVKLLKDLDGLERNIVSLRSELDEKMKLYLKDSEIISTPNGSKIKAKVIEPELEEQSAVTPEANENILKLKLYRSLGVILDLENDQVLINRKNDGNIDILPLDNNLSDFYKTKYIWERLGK
UniProt Q8NBT2: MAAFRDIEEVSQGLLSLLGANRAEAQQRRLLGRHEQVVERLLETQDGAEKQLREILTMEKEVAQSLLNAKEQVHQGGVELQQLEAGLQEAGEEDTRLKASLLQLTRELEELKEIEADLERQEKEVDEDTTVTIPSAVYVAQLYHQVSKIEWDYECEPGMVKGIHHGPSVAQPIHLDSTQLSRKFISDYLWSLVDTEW
UniProt P40460: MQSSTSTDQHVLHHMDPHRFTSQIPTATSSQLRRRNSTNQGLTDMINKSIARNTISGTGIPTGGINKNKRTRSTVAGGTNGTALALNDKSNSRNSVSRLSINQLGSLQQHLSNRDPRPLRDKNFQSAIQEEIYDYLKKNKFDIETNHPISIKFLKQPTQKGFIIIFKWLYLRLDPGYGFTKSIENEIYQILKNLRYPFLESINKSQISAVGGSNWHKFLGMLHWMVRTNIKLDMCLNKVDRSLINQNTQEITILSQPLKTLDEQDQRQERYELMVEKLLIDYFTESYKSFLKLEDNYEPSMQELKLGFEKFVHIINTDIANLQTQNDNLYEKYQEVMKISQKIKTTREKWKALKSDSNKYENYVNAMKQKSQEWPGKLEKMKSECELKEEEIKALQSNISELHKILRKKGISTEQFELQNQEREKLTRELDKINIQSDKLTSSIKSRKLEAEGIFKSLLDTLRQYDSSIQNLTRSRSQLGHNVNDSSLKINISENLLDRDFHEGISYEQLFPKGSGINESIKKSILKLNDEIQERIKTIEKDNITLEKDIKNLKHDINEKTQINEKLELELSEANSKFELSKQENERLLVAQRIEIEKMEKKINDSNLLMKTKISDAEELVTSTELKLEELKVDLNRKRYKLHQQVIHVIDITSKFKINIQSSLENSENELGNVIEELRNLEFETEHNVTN
UniProt Q9HBM1: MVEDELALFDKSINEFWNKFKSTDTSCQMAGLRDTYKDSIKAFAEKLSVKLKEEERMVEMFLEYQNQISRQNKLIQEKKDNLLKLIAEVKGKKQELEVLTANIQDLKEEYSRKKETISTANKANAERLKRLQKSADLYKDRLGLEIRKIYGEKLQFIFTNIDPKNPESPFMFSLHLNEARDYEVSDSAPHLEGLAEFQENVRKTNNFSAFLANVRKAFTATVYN
UniProt O14777: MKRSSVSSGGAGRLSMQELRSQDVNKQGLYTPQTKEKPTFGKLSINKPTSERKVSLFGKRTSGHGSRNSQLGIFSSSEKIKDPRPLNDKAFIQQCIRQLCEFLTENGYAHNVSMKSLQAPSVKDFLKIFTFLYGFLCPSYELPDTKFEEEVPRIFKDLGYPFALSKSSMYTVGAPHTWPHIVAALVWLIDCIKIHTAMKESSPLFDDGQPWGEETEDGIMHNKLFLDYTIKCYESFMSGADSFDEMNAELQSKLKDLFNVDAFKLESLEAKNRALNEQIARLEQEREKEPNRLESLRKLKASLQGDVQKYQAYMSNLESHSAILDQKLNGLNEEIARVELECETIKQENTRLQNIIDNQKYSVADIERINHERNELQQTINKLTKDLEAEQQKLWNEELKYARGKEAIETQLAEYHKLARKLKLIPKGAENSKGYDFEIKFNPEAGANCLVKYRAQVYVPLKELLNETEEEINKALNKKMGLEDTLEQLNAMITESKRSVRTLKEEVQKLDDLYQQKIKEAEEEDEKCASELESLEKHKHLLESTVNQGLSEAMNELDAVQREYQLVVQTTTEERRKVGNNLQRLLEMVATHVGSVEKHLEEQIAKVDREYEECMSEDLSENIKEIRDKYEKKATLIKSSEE
UniProt P33895: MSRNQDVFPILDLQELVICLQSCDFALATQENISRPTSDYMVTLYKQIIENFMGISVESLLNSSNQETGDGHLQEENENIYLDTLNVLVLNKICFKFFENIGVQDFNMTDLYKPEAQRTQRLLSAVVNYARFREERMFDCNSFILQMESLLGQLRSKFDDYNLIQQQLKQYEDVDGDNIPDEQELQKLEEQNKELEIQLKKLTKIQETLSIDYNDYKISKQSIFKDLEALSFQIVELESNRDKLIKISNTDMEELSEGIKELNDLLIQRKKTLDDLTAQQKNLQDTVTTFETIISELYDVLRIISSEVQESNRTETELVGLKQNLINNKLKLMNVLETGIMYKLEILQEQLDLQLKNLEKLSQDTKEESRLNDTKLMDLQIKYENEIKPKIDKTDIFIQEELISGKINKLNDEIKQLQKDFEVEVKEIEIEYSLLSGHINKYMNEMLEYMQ
UniProt Q9BZD4: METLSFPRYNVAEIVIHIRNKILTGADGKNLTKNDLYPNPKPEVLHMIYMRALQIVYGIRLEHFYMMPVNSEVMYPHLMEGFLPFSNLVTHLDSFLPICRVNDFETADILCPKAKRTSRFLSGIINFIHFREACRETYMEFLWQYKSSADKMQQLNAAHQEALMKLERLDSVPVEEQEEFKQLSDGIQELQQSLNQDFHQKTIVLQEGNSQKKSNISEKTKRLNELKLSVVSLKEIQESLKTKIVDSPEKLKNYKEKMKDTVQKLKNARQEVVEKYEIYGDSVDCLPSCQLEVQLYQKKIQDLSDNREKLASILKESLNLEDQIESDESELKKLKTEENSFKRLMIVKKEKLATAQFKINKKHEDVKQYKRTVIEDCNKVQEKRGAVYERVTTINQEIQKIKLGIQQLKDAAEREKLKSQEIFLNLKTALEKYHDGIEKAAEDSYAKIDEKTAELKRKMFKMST

Tests used:
[1] = target: His6-tagged Spc24 (yeast Ndc80 complex) (yeast) (UniProt Q04477); assay: co-purification (Ni-NTA affinity, then SEC); four subunits co-expressed in E. coli from two bicistronic plasmids, only Spc24 His6-tagged; Ni-NTA, then Superdex 200 16/60; Coomassie gels in Fig. S5
[2] = target: His6-tagged Spc24 (human Ndc80 complex) (human) (UniProt Q8NBT2); assay: as above

Substance	binding [1]	binding [2]
yeast Ndc80 (from UniProt P40460 1-691)	binds	
Spc25 (human Ndc80 complex) (from UniProt Q9HBM1 1-224)		binds
human Hec1 (from UniProt O14777 1-642)		binds
yeast Nuf2 (from UniProt P33895 1-451)	binds	
human Nuf2 (from UniProt Q9BZD4 1-464)		binds
